Laboratory results as given in patent US20120128593A1, “USE OF A MAGNETIC RESONANCE IMAGING MEDIUM COMPRISING HYPERPOLARIZED 13C PYRUVATE FOR THE DETECTION OF INFLAMMATION OR INFECTION” (priority 2010, published 2012).

System: arthritic joints
Assay: 13C MRS (FID CSI, 1D EPSI) of arthritic and normal joints after injection of hyperpolarized 13C-pyruvate
Type: in vivo, Sprague Dawley rats
Settings: for ratio of metabolite at the joint to total 13C: lactate / ratio of metabolite at the joint to total 13C: pyruvate: ROI analysis, FID CSI 20 sec after injection
Description: Arthritis was induced in six juvenile Sprague Dawley rats (age 4-5 weeks, mean weight 114 grams) with injection of 0.4 μL/g complete Freund's adjuvant (3 rats at the right knee and 3 rats at the right ankle). Arthritic joints were imaged 7 days after induction with ^13C MRS on a GE 3 T scanner equipped with self-shielded gradients (40 mT/m, 150 mT/m/ms) and a custom-built dual-tuned (^1H/^13C) quadrature coil (Ø=80 mm) for both excitation and signal reception. 0.5 mL of a 100 mM solution of ^13C-1-pyruvate was hyperpolarized by DNP (15-20% liquid state polarization) and injected via the tail vein. Single-time point MRS analysis of 13C-1 pyruvate and its metabolites was obtained 20 sec after injection with a FID CSI sequence (voxel=2.5×2.5×10 mm, FOV=4×4 cm). Time resolved imaging was obtained with a 1D EPSI sequence during a second hyperpolarized ^13C-pyruvate injection. Mean signal intensities of pyruvate and lactate were obtained with ROI analysis at the joints and normal and arthritic joints were compared with the T-test.

CC(=O)C(=O)O [[1-^13C]pyruvate, ^13C1-pyruvate]
ratio of metabolite at the joint to total 13C: lactate (arthritic joint, p<0.12 vs normal): 0.21
ratio of metabolite at the joint to total 13C: pyruvate (arthritic joint, p<0.17 vs normal): 0.34
ratio of lactate to total 13C (arthritic joint, p<0.03 vs normal): 0.62
rate of conversion to lactate (arthritic joints vs normal, time resolved imaging (FIG. 2)): increased
lactate production in metabolic maps (arthritic paw vs normal paw, 20 sec after injection (FIG. 1)): increased lactate production
ratio of lactate to total 13C (normal joint): 0.56
ratio of metabolite at the joint to total 13C: lactate (normal joint): 0.16
ratio of metabolite at the joint to total 13C: pyruvate (normal joint): 28
